Consider 16 sequences from US20140011207.

By UniProt entry, the sequences of proteins in these tests, tags left out. Residues count along the entry.
UniProt P07288, 25-261: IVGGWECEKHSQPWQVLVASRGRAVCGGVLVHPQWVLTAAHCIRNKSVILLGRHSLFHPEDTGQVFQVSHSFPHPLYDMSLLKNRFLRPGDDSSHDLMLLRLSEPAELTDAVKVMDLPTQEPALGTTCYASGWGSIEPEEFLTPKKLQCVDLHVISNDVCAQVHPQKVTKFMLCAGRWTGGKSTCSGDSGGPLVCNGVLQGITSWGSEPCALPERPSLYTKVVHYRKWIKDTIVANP

For some of these results: Negatives hold for the conditions tested. For some of these results: The comparison behind a weaker result is the experiment's own reference, which may not be listed here. For some of these results: Construct, isoform or probe ends are uncertain for at least one entry.

In data set [1] the target is Prostate-specific antigen (PSA, KLK3) (Homo sapiens) (UniProt P07288). The experiment in a line: ELONA. Particulars: purified native protein, label: 5'-FITC, single-stranded DNA.
The target is the same in data set [2]. The data set is described as follows: binding assay. Particulars: purified native protein, label: FITC, single-stranded DNA.
Where [3] appears, read: aptamer blotting on nitrocellulose.
Setting [4] is: aptamer blotting, not among the five clones reported to bind (implied).

For the sequence “TTTTTCCGCACCGGGTACGTTTTTTGGCCTTT [ΔPSap#4-6]”, in data set [1] (parent rank 5, variant of PSap#4-6), the binding result is given as “binds more weakly”.
Take “CATGCTTACCTATAGTGAACTTTCTGGTGTTTATTGTTTACTGTCCCTTTCATGCTTACCTATAGTGAAC [PSap#4-4]”: the binding result in data set [2] (setting [3]) is recorded as “binds”.
The same measure, in the same setting: for “CATGCTTACCTATAGTGAACTTTCCGCACCGGGTACGTTTTTTGGCCTTTCATGCTTACCTATAGTGAAC [PSap#4-6]” the value was “binds”.
Turning to “CATGCTTACCTATAGTGAACTTTCTGCGTTCTTTCTTCCTACTTCACGTTCATGCTTACCTATAGTGAAC [PSap#4-7]”, the binding result in data set [2] (setting [4]) is “no binding”.
Regarding “TTTTTCTGGTGTTTATTGTTTACTGTCCCTTT [ΔPSap#4-4]”, in data set [1] (parent rank 2, variant of PSap#4-4), the binding result is “binds more weakly”.
As to “CATGCTTACCTATAGTGAACTTGTTATGGATTCACTGCCCAGCGTTTCATGCTTACCTATAGTGAAC [PSap#4-1]”, the binding result in data set [2] (setting [4]) is “no binding”.
Consider “TTTTTAATATCAACTTGCCATCAAATATCTTT [ΔPSap#4-9]”, for which the binding result in data set [1] (parent rank 4, variant of PSap#4-9) is “binds more weakly”.
“CATGCTTACCTATAGTGAACTTTTGGCGCAGTACTGGTCTACCTGGCTTTCATGCTTACCTATAGTGAAC [PSap#4-10]”: the binding result in data set [2] (setting [4]) is given as “no binding”.
Turning to “TTTTTACTTAATGATTTCCCGGTTGTCTCTTT [ΔPSap#4-3]”, the binding result in data set [1] (parent rank 1, about 48-fold below ΔPSap4#5, variant of PSap#4-3) is recorded as “binds more weakly”.
For “CATGCTTACCTATAGTGAACTTTATTAGCCTCCCGGAAGAGCACCTCTTTCATGCTTACCTATAGTGAAC [PSap#4-5]”, the binding result in data set [2] (setting [4]) is listed as “no binding”.
For “CATGCTTACCTATAGTGAACTTTAATATCAACTTGCCATCAAATATCTTTCATGCTTACCTATAGTGAAC [PSap#4-9]”, in data set [2] (setting [3]), the binding result is “binds”.
As to “CATGCTTACCTATAGTGAACTTTCCGTCCTTGCCCATCTAGCGTCTTTTTCATGCTTACCTATAGTGAAC [PSap#4-2]”, in data set [2] (setting [4]), the binding result is given as “no binding”.
For “CATGCTTACCTATAGTGAACTTTGTGTTGCCCGGAACGTCGTGGCCCTTTCATGCTTACCTATAGTGAAC [PSap#4-11]”, the binding result in data set [2] (setting [3]) is on record as “binds”.
With “CATGCTTACCTATAGTGAACTTTCCGTTGTAGCCTGGCTTCTACCTATTTCATGCTTACCTATAGTGAAC [PSap#4-12]”, the binding result in data set [2] (setting [4]) is “no binding”.
As for “CATGCTTACCTATAGTGAACTTTACTTAATGATTTCCCGGTTGTCTCTTTCATGCTTACCTATAGTGAAC [PSap#4-3]”, the binding result in data set [2] (aptamer blotting on nitrocellulose, TBST, 5 mM MgCl2, RT) is “binds”.
With “TTTTTGTGTTGCCCGGAACGTCGTGGCCCTTT [ΔPSap#4-11]”, the binding result in data set [1] (parent rank 3, variant of PSap#4-11) was “binds more weakly”.
